Data as given in patent CN101309933A.
These are yes or no findings as the source states them, for the method shown. Some binding calls cover weakened binding; strength is not graded here.

Sequences of proteins named here, by UniProt entry; tags and fusion partners are left off. Residues count along the entry.
UniProt D3ZBN3, residues 23-977: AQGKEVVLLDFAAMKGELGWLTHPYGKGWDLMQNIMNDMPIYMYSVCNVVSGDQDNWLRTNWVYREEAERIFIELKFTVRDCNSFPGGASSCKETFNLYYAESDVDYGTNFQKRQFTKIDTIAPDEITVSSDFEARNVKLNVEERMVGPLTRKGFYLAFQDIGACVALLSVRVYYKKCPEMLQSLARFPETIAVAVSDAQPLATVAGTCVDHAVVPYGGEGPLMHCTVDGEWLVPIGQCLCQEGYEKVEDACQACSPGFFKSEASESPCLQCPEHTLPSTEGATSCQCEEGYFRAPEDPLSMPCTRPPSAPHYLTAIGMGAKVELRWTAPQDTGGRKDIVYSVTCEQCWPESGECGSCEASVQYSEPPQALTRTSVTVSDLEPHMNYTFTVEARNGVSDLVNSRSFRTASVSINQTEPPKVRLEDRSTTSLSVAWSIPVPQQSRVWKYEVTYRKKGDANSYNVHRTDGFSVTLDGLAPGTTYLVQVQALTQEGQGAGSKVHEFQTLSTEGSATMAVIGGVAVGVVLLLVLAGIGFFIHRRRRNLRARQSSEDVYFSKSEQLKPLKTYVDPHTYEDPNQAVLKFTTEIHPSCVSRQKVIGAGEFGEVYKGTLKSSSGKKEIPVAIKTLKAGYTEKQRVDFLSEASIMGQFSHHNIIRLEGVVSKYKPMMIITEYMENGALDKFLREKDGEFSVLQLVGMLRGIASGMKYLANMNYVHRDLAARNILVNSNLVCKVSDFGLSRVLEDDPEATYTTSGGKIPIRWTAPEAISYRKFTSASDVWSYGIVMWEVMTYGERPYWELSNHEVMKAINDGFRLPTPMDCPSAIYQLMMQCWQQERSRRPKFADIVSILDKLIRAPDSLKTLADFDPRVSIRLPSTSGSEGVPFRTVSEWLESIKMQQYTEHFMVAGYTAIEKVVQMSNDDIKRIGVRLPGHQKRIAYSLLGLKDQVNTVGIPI

B1: 抗-EphA2抗体1H3 (antibody, V domains shown)
VH: EVQLLESGGGLVQPGGSLRLSCAASGFTFSMYAMRWVRQAPGKGLEWVSVIGPSGGWTPYADSVKGRFTISRDNSKNTLYLQMNSLRAEDTAVYYCARDRGIYGMDVWGQGTTVTVSS
VL: DIQMTQSPSFLSASVGDRVTITCRASQGISSYLAWYQQKPGKAPKLLIYAASTLQSGVPSRFSGSGSGTEFTLTISSLQPEDFATYYCLELNNYPFTFGLGTKVHIK
B2: 抗-EphA2抗体3F2 (antibody, V domains shown)
VH: EVQLVESGGGVVRPGGSLRLSCAASGFTVSDYSMNWVRQAPGKGLEWIGFIRNKANAYTTEYSASVKGRFTISRDDSKNTLYLQMNSLKTEDTAVYYCTTYPRYHAMDSWGQGTMVTVSS
VL: AIQLTQSPSSLSASVGDRVTITCRASQSISNNLHWYLQKPGQSPQLLIYYGFQSISGVPSRFSGSGSGTDFTLTISSLQPEDFATYYCQQANSWPLTFGGGTKLEIK

Target: 大鼠EphA2 (expressed on cells) (rat) (UniProt D3ZBN3)
Assay: flow cytometry on cell lines, 1 μg antibody, PE goat anti-human IgG

| Binder | binding |
| --- | --- |
| B1 | binds |
| B2 | binds |
